# Hit rate of the full screen: of about 220,000 compounds, about 770 (0.35%) were called active. The inconclusive results got no clear call from the source; some entries with a clear call stand among them for comparison. Cut-off read from the data, not from the text of the source: active = binding response below about 49% or above about 150%; inconclusive = no clear call, values can overlap the other calls; inactive = in between.
# By UniProt entry, the sequences of proteins in these tests, tags left out.
# UniProt P09471, whole entry, looked up: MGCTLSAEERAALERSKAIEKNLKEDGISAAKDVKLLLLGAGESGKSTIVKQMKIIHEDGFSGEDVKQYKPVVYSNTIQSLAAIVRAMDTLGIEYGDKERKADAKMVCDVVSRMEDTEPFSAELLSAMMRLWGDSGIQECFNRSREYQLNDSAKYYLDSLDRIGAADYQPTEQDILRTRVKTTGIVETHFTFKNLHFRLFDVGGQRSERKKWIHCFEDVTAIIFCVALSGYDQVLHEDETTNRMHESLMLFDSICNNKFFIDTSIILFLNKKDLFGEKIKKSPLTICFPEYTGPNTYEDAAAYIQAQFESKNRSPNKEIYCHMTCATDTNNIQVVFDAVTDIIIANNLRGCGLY
# Target: Guanine nucleotide-binding protein G(o) subunit alpha (Homo sapiens) (UniProt P09471)
# Test: RGS7-Galphao binding modulators, primary screen, biochemical, multiplexed bead flow cytometry (AID 1439);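 note: fluorescent Galphao held in activated GDP-AlF4 state binding bead-coupled RGS7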
# Details: at 10 µM, actives lie on both sides
row,SMILES,binding response (% of control)
1,C=CCSc1nc2ccsc2c(=O)n1-c1cccnc1,inconclusive: 98.3%
2,CCN(C(=O)c1cc2c(=O)[nH]c3ccc(C)cc3c2s1)c1ccc(F)cc1,inconclusive: 115%
3,CCCc1n(CC)c2ccccc2[n+]1CC(O)COC1CCCCC1 (configuration not stated),inactive: 91%
4,CCOc1cc(N2CCOCC2)c(OCC)cc1NC(=O)C(C)C,inconclusive: 88.1%
5,CCCn1c(N)cc(=O)n(CCC)c1=O,inconclusive: 96.9%
6,COc1ccc(NC(=O)CC2C(=O)N(C)C(=S)N2Cc2ccc3c(c2)OCO3)cc1 (configuration not stated),inactive: 94.3%
7,O=C(Nc1ccc(Cl)cn1)c1ccc2c(Cl)c3c(nc2c1)CCC3,inconclusive: 82.6%
8,CCc1c(C)sc(NC(=S)N2CCN(S(C)(=O)=O)CC2)c1C(=O)OC,inconclusive: -54.4%
9,Cc1ccccc1C(=O)Nc1cc(-c2cc(C(C)(C)C)oc2C)nn1C,inconclusive: 107%
10,CCN(CC)C(=O)C(=O)Nc1ccc(F)c(Cl)c1,inconclusive: 111%
11,Oc1[nH]c2ccccc2c1N=Nc1nncc2ccccc12,inconclusive: 120%
12,COC(=O)c1cc(=O)n(-c2c(Cl)cc(C(F)(F)F)cc2Cl)[nH]1,inconclusive: 49%
13,Clc1ccc2nnc(Cl)n2n1,inconclusive: 98.6%
14,COC(=O)c1sc(SC)c(S(=O)(=O)C(C)C)c1N/N=C(\C#N)S(=O)(=O)c1ccccn1,inconclusive: 131%
15,O=C(NNC(=S)Nc1ccccc1)Nc1ccccc1,inconclusive: 109%
16,Cc1cc(N2CCN(C)CC2)ccc1NC(=O)c1cccc(S(=O)(=O)N2CCc3ccccc3C2)c1,inactive: 95.9%
17,COc1ccc(C(CCNCc2ccc(OC)c(OC)c2)c2ccc(F)cc2)cc1 (configuration not stated),inconclusive: 88.1%
18,COc1cc([C@@H]2c3cc4c(cc3[C@@H](O)[C@@H](CO)[C@@H]2CO)OCO4)cc(OC)c1O[Si](C)(C)C(C)(C)C,inconclusive: 86.2%
19,Cc1onc(-c2ccccc2)c1CNS(=O)(=O)c1ccccc1[N+](=O)[O-],inconclusive: -133%
20,COCCCNC(=S)NNC(=S)Nc1ccccc1,inconclusive: 121%
21,CN(C)NC(=O)c1cccc(Cl)c1,inconclusive: 223%
22,CC1(OC(=O)C2CCCC2)C(=O)C=C2C=C(c3ccsc3)N(Cc3ccco3)C=C2C1=O (configuration not stated),inconclusive: 94%
23,Cc1c(S(=O)(=O)NCCc2ccccc2)c(=O)n(C)c(=O)n1C,inconclusive: 107%

row,SMILES,binding response (% of control)
1,Nc1sc(-c2ccccc2)n[n+]1Cc1cccc2cccnc12,inconclusive: 102%
2,CCc1ccc(-n2c(Cc3ccccc3)n[nH]c2=S)cc1,inconclusive: 103%
3,CC(C)(C)c1ccc(-c2nc(-c3ccncc3)no2)cc1,inactive: 89.4%
4,CCOc1cccc(/C=C2\NC(=S)N(c3ccccc3)C2=O)c1O,inconclusive: 30.4%
5,CCOC(=O)N1CCC(NC(=O)c2cccs2)CC1,inconclusive: 102%
6,COC(=O)N/N=C/c1ccccc1,inconclusive: 99.6%
7,CC(C1CCN(Cc2cn(C)nc2-c2cccc(Cl)c2)CC1)N1CCOCC1 (configuration not stated),inactive: 101%
8,COc1ccccc1/C=N/NC(=S)NCc1ccco1,inconclusive: 82.3%
9,CNC(=S)NNC(=O)CSCc1c(Cl)cccc1Cl,inconclusive: 108%
10,O=C1/C(=C/c2ccco2)SC(=S)N1CC1CCCO1 (configuration not stated),inconclusive: 14.5%
11,COc1ccc(Cc2nnc(Nc3c(C)cccc3C)o2)cc1OC,inconclusive: 95.3%
12,Cc1cc2c(cc1S(=O)(=O)N1CCc3ccccc31)NC(=O)CO2,inconclusive: 111%
13,CCOC(=O)c1nc2sc3c(c2c(=O)n1C(C)C(=O)OCC)CCCC3 (configuration not stated),inactive: 97.7%
14,COc1ccc2nc(NC(=O)c3sc4nc(C)cc(C)c4c3N)sc2c1,inconclusive: 75.9%
15,S=C(Nc1ccc(Cl)cc1)N1CCCC1,inactive: 98.2%
16,Cc1cc(C)nc(Nc2nc3ccccc3s2)n1,inconclusive: 114%
17,O=C(OCC(=O)N1CCc2ccccc2C1)c1cccs1,inconclusive: 95.9%
18,CCn1c(SCC(=O)N/N=C(\C)c2ccncc2)nnc1-c1ccc(C)cc1,inconclusive: -3.05%
19,NS(=O)(=O)c1ccc(NC(=S)NC(=O)c2cccs2)cc1,inconclusive: 110%
20,CCn1c2ccccc2c2nc3cc(S(=O)(=O)N4CCOCC4)ccc3nc21,inactive: 123%
21,Nc1nnc(-c2ccc(Cl)c([N+](=O)[O-])c2)s1,inconclusive: 87%
22,C=CCn1c(C)c(C(C)=O)cc(NC(=O)c2ccccc2)c1=O,inconclusive: 86.7%
23,CC(C)Cc1nc(Cl)c(C#N)c2c1CCC2,inconclusive: -3.06%

row,SMILES,binding response (% of control)
1,Cn1c(=O)[nH]c(=O)c2c1nc(N/N=C/C(Br)=C/c1ccccc1)n2CCO,inconclusive: 127%
2,Cc1c(NC(=O)CSc2ccccc2C(=O)Nc2cccnc2)c(=O)n(-c2ccccc2)n1C,inactive: 97.9%
3,C/C(=N\NC(=O)C12CCC(C)(C(=O)O1)C2(C)C)c1ccccc1O (configuration not stated),inconclusive: 100%
4,CN(C)S(=O)(=O)c1cccc(NC(=O)COC(=O)c2cccn2C)c1,inconclusive: 98.2%
5,Nc1nc(NCc2ccco2)nc(NCCO)c1[N+](=O)[O-],inconclusive: 79.4%
6,CCC12CSc3nc(Cl)ccc3N1C(=O)C(=O)N2C (configuration not stated),inconclusive: 55.6%
7,Cc1c(C(=O)NC(C)CCc2ccccc2)cccc1[N+](=O)[O-] (configuration not stated),inactive: 104%
8,O=S(=O)(CS(=O)(=O)c1ccc(Cl)cc1)c1ccc(Cl)cc1,inconclusive: 98.8%
9,Cc1cc(-c2nnnn2-c2ccc(F)cc2)no1,inconclusive: -88.4%
10,O=C(CCc1nnc(CCc2c[nH]c3ccccc23)o1)NC1CCC1,inconclusive: 84.3%
11,CC(=O)Nc1ccc(Nc2c3c4c(cccc4n(C)c2=O)C(=O)c2ccccc2-3)cc1,inactive: 97.9%
12,CCc1ccccc1N1CC23C=CC(O2)C(C(=O)OCC(C)C)C3C1=O (configuration not stated),inactive: 134%
13,Cc1ccc(C(=O)O)cc1NC(=S)NC(=O)c1ccc([N+](=O)[O-])c(C)c1,inconclusive: 103%
14,CCOc1ccc(NC(=O)Nc2cc(C(C)C)ccc2C)cc1,inconclusive: 107%
15,CN1CCN(c2ccc(NC(=O)c3ccc(Cl)cc3)cn2)CC1,inconclusive: 85.4%
16,CC(C)(C)OC(=O)NC(CO)c1cn([C@@H](Cc2cc3ccccc3[nH]2)C(=O)N2CCN(C(=O)OC(C)(C)C)CC2)nn1 (some centres not stated),inactive: 101%
17,CC(=O)Nc1sc(N/N=C/c2ccc(N(C)C)cc2)nc1-c1ccc(C)cc1,inconclusive: 107%
18,CCCC(C)C(=O)Nc1ccc(S(=O)(=O)Nc2nccs2)cc1 (configuration not stated),inactive: 99.2%
19,CCc1ncc(C)nc1CC,inconclusive: 78.7%
20,C[C@@H](C(=O)N[C@@H](Cc1ccccc1)C(=O)O)n1nnc2ccccc2c1=O,inconclusive: 113%
21,COc1ccc(/C=N/n2cnn(Cc3ccccc3Cl)c2=S)cc1,inconclusive: -206%
22,CCCCn1nc2cc(C(=O)NCCc3cccs3)ccc2c1OCC,inactive: 101%
23,COc1ccc(C(C(=O)NC(C)(C)C)N(C(=O)Cn2nnc3ccccc32)c2ccc(C(C)=O)cc2)cc1O (configuration not stated),inconclusive: 64.3%

row,SMILES,binding response (% of control)
1,Cc1ccccc1C(=O)NC(=S)N(C)CCc1ccccn1,inconclusive: 111%
2,COc1cccc(CNC(=O)c2n[nH]c3ccccc23)c1,inconclusive: 92.5%
3,COc1ccc(N(CC(=O)Nc2cccc(N(C)S(C)(=O)=O)c2)S(=O)(=O)c2ccc(F)cc2)cc1,inconclusive: 107%
4,CNc1ccc(Br)cc1C(O)c1ccccc1 (configuration not stated),inconclusive: 133%
5,Cn1c(SCCOc2ccc(F)cc2)nnc1-c1ccncc1,inconclusive: 101%
6,COc1ccc(NC(=O)c2ccc3c(SCC(=O)O)c4c(nc3c2)CCCC4)cc1Cl,inconclusive: 95%
7,Cc1ccccc1NC(=O)Cc1nnc(N)s1,inconclusive: -890%
8,Cc1cc(N)ccc1N1CCCC1,inactive: 50%
9,COC(C[C@H](O)C[C@H](O)[C@H](C)OCc1ccccc1)OC,inconclusive: 105%
10,CCOC(=O)NNc1cc(C(F)(F)F)ccn1,inconclusive: 66.9%
11,CC1(C)CCSC(/C=C/c2ccccc2)=N1,inconclusive: 111%
12,O=C(Nc1cc(S(=O)(=O)N2CCOCC2)ccc1N1CCOCC1)c1cccc(S(=O)(=O)N2CCCCC2)c1,inconclusive: 104%
13,O=C(Nc1ccc2c(c1)OCO2)c1n[nH]c(=O)c2ccccc12,inconclusive: 35.6%
14,Cc1ccc(C)c(/C=C(\C(=O)O)c2ccc(S(=O)(=O)N3CCCCC3)s2)c1,inconclusive: 39.5%
15,COc1ccc(C2=[N+](C)CCn3cccc32)c(OC)c1,inactive: 142%
16,CCCCCC(=O)NC(=S)Nc1cccc(C(C)=O)c1,inactive: 101%
17,FC(F)(F)c1cccc(CNC(=S)Nc2ccccc2)c1,inconclusive: 182%
18,Cc1cc(Cl)c(S(=O)(=O)N2CCN(c3ccc(F)cc3)CC2)cc1OCC(=O)NC1CCCCC1,inactive: 111%
19,COc1cc(C(=O)NCCc2c[nH]c3ccccc23)ccc1OCc1c(C)noc1C,inactive: 101%
20,COCCCN(C(=S)NC(=O)C(C)(C)C)c1c(N)n(Cc2ccccc2)c(=O)[nH]c1=O,inconclusive: 140%
21,O=C(NCCN1CCCCCC1)C1CCCN1S(=O)(=O)c1cccc2nsnc12 (configuration not stated),inconclusive: 101%
22,C/C(=N\NC(=S)Nc1ccc(C)cc1)c1cc2ccccc2o1,inconclusive: 98.9%
23,O=C(N/N=C/c1cc(Br)cc(Br)c1O)c1cccc(S(=O)(=O)N2CCOCC2)c1,inconclusive: 61.6%

# Quoted from the results shown, three compounds:
row,SMILES,binding response (% of control)
6,CCC12CSc3nc(Cl)ccc3N1C(=O)C(=O)N2C (configuration not stated),inconclusive: 55.6%
7,Cc1c(C(=O)NC(C)CCc2ccccc2)cccc1[N+](=O)[O-] (configuration not stated),inactive: 104%
8,O=S(=O)(CS(=O)(=O)c1ccc(Cl)cc1)c1ccc(Cl)cc1,inconclusive: 98.8%

# — PubChem BioAssay AID1439 (NMMLSC, 2008)
